The supplement of paper PMC10849652
This is one part of the list.

By UniProt entry, the sequences of proteins in these tests, tags left out. Where a name states a change or a piece, a line headed by the entry shows the natural chain unless it says otherwise.
UniProt P00441, whole entry, looked up: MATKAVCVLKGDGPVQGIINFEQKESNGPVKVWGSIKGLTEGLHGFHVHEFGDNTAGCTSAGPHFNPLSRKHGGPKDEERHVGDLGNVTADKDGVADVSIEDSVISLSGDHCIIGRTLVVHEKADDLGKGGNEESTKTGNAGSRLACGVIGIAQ
UniProt Q96EX1: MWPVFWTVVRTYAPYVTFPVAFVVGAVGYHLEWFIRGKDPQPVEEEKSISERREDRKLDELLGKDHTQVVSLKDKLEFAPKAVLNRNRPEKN
UniProt P09234, whole entry, looked up: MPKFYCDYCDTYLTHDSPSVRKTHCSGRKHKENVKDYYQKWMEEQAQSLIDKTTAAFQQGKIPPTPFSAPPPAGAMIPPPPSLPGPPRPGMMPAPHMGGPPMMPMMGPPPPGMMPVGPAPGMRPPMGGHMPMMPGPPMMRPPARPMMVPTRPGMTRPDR
UniProt P53814: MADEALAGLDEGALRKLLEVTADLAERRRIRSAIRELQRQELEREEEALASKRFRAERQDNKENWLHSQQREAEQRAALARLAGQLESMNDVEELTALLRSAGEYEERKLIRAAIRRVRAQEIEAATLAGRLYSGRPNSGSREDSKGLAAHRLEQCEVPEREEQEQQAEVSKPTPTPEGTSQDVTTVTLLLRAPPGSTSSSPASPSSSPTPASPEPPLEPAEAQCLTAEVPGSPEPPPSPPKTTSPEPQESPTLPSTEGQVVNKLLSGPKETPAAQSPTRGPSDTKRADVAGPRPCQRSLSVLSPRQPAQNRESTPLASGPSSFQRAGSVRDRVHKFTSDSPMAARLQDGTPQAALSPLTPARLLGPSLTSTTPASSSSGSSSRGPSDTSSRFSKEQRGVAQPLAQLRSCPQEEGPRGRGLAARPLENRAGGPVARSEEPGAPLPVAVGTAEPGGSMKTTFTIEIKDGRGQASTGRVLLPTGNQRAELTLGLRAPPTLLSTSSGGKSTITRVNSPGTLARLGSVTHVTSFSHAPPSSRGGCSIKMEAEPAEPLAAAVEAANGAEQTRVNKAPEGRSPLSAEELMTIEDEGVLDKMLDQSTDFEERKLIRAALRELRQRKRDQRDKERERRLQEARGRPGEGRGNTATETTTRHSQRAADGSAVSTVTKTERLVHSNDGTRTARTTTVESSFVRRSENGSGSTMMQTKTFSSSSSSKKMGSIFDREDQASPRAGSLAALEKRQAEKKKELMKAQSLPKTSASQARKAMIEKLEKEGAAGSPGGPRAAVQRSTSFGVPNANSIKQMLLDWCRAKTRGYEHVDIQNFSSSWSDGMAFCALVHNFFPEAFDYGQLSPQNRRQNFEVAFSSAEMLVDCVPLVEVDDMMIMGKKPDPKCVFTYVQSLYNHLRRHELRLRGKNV
UniProt P08621, whole entry, looked up: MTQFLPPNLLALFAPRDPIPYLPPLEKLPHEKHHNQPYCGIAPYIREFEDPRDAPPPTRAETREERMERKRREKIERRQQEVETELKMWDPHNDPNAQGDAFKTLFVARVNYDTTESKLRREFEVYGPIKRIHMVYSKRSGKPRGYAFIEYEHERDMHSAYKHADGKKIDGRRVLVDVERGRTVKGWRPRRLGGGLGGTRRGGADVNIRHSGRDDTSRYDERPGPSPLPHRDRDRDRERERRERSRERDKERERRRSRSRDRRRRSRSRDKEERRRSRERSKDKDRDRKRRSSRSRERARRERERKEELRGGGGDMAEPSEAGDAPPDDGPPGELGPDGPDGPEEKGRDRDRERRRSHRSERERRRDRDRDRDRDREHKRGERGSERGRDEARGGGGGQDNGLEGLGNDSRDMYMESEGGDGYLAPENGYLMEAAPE
UniProt Q13573: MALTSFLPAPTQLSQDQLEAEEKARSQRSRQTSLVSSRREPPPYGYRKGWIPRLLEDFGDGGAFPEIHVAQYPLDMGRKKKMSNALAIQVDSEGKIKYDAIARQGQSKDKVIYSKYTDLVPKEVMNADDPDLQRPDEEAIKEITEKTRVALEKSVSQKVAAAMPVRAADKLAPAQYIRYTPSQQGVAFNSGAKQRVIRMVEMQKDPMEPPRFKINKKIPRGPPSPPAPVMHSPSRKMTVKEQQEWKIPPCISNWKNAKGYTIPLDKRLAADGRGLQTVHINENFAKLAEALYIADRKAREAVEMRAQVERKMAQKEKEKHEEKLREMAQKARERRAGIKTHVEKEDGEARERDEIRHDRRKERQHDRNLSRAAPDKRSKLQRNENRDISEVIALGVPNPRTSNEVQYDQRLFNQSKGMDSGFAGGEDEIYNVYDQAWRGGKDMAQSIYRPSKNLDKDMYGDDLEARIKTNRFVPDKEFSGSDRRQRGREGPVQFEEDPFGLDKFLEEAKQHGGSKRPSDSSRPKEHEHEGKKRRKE
UniProt P62314, whole entry, looked up: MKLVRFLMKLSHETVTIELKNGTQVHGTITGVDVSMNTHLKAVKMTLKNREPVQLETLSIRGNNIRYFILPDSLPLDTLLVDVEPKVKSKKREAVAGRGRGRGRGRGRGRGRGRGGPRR
UniProt Q86US8: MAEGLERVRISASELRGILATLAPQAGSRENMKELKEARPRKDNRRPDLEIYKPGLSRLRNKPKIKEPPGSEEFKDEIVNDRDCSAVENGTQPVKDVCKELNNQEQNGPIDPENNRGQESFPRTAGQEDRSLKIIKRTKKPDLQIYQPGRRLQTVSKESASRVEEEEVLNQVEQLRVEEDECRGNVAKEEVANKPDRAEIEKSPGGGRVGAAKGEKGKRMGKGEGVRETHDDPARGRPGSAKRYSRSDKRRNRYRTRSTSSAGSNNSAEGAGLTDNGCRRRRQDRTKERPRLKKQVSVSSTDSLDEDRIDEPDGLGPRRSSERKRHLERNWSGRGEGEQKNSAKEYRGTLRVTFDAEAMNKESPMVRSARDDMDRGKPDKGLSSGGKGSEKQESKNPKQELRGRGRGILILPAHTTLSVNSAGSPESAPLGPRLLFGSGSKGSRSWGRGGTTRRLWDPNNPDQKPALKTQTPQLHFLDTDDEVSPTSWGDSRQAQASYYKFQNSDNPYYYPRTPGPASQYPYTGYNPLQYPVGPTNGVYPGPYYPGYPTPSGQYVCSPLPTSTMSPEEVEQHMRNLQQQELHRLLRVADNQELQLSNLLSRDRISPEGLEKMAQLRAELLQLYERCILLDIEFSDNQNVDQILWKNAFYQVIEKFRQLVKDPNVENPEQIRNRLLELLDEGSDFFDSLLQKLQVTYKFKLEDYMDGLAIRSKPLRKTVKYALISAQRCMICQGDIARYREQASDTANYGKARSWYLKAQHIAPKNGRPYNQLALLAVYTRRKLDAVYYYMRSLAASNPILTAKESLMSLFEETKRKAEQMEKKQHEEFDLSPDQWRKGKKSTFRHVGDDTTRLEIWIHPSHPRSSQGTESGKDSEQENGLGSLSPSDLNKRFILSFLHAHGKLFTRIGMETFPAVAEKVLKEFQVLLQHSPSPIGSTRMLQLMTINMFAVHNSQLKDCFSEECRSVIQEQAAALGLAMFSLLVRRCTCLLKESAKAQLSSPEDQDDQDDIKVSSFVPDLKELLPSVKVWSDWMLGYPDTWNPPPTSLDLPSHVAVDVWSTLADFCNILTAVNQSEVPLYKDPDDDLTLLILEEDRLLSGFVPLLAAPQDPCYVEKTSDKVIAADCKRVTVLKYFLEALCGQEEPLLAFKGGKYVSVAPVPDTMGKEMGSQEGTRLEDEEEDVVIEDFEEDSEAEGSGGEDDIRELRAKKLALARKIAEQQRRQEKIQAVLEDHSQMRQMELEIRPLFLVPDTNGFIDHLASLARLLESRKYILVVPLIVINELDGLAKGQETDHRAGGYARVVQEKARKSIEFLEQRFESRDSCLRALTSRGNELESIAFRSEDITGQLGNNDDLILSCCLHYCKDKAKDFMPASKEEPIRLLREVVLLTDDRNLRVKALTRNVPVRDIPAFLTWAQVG
UniProt Q7KZF4: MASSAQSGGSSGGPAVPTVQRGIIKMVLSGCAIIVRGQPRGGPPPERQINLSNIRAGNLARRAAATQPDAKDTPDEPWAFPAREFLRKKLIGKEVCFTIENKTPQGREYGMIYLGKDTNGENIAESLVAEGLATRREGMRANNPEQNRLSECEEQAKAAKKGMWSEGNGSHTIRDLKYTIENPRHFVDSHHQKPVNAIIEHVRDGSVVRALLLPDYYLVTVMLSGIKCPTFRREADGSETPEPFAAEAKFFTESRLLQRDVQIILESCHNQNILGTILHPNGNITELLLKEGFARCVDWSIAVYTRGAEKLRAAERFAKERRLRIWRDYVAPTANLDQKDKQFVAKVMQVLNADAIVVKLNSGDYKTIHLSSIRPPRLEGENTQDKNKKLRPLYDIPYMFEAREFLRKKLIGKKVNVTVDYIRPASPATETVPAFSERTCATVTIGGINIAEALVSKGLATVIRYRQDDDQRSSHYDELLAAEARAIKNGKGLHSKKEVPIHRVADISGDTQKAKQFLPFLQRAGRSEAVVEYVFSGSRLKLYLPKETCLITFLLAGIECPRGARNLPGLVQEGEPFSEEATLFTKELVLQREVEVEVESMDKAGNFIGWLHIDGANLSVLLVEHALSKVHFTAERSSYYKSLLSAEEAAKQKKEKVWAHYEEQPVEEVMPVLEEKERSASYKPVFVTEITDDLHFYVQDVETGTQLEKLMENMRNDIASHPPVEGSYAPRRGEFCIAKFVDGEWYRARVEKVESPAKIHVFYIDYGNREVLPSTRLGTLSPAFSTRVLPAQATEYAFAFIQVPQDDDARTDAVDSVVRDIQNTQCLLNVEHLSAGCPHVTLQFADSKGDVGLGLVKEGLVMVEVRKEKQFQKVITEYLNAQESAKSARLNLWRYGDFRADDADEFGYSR
UniProt O95295: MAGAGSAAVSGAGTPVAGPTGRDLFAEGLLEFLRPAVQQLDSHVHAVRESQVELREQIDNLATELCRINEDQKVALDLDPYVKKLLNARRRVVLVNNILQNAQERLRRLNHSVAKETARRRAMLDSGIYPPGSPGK
UniProt P62306, whole entry, looked up: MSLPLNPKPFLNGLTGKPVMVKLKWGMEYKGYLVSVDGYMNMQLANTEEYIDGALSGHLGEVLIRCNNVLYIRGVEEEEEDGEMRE
UniProt Q92540: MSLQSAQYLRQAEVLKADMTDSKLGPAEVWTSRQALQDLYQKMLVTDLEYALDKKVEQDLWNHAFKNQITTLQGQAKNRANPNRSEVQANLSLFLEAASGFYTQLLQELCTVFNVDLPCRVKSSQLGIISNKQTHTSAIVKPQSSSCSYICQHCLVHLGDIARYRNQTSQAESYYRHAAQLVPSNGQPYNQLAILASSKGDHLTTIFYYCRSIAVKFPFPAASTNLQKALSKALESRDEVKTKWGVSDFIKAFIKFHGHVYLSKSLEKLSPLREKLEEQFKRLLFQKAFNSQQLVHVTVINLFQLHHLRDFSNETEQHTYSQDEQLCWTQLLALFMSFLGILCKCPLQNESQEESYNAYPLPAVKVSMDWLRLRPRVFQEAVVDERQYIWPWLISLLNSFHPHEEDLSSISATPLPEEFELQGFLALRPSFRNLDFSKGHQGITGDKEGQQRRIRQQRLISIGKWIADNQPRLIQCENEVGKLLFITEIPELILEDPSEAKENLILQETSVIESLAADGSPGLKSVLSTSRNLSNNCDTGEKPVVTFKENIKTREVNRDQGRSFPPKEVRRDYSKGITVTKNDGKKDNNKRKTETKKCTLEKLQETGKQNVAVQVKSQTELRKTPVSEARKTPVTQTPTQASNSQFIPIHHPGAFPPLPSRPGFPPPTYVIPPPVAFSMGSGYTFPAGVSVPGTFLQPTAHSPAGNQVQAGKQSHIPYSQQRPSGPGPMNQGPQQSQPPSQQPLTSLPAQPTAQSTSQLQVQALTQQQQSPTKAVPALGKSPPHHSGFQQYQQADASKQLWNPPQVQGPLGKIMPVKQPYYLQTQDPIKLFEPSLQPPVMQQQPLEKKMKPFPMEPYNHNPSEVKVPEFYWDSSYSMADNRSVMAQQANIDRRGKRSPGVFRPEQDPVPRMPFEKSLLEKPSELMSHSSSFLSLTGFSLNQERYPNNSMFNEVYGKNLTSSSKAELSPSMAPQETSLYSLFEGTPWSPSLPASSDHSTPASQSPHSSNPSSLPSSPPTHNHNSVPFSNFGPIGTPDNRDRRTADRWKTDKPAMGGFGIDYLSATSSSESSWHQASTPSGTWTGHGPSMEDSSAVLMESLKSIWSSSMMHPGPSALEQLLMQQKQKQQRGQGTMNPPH
UniProt P09661: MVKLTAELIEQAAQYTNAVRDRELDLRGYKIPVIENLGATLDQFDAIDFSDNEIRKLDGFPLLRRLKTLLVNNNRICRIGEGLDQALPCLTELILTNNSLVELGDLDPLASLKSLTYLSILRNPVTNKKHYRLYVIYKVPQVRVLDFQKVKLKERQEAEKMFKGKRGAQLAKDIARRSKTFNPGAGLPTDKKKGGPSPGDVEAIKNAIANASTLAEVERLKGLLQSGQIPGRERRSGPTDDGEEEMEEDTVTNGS
UniProt Q8WVK2: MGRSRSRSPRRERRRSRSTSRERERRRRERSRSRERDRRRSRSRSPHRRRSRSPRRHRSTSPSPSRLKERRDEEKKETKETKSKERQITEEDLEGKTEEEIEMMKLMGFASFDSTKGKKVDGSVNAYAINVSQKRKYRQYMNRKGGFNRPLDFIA

Legend:
Test in all cases: log2 fold change, soluble protein after heating vs DMSO (PISA); higher = thermal stabilisation; K562 lysate, 10 uM; active = over 0.2 and 3.5 SD of the protein, either way, in both replicates (recomputed)
alvocidib = compound: CN1CC[C@H](c2c(O)cc(O)c3c(=O)cc(-c4ccccc4Cl)oc23)[C@H](O)C1 [alvocidib]
How it was run: (§1)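 To prepare the extract, K562 pellets were dounce-homogenised in PBS pH 7.4 with 1 mM MgCl2, giving crude material at 1 mg/mL protein. This was treated with 10 μM compound for 30 min, then heated in aliquots for 3 min over 48°C-58°C before pooling and addition of NP-40 to 0.5% at 4°C. Centrifugation at 21,000xg for 90 min left soluble protein in the supernatant, which TMTpro 16plex LC-MS/MS quantified with equalised channel sums. Results are log-two fold changes in thermal stability compared with solvent controls, from duplicates.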

Tubastatin A = compound: CN1CCc2c(c3ccccc3n2Cc2ccc(C(=O)NO)cc2)C1 [Tubastatin A]
How it was run: as §1

[1] = compound: CNC(=O)C1=CC=CC=C1NC2=NC(=NC=C2Cl)NC3=C(C=C(C=C3)N4CCOCC4)OC
How it was run: as §1

defactinib = compound: CNC(=O)c1ccc(Nc2ncc(C(F)(F)F)c(NCc3nccnc3N(C)S(C)(=O)=O)n2)cc1 [defactinib]
How it was run: as §1

[2] = compound: CNc1nc(-c2ccc3c(N)n[nH]c3c2)cc(N2C[C@@H](C(=O)NC3CCCCC3)CC[C@H]2C)n1
How it was run: as §1

encorafenib = compound: COC(=O)N[C@@H](C)CNc1nccc(-c2cn(C(C)C)nc2-c2cc(Cl)cc(NS(C)(=O)=O)c2F)n1 [encorafenib]
How it was run: as §1

[3] = compound: COC(=O)[C@H](CCSC)NC(=O)C1=C(C=C(C=C1)NC[C@H](CS)N)C2=CC=CC=C2
How it was run: as §1

alisertib = compound: COc1cc(Nc2ncc3c(n2)-c2ccc(Cl)cc2C(c2c(F)cccc2OC)=NC3)ccc1C(=O)O [alisertib]
How it was run: as §1

[4] = compound: COc1cc2nc(-c3cc(F)ccc3O)nc(N[C@@H]3CNC[C@H]3C(C)(C)O)c2cc1OC
How it was run: as §1

gefitinib = compound: COc1cc2ncnc(Nc3ccc(F)c(Cl)c3)c2cc1OCCCN1CCOCC1 [gefitinib]
How it was run: as §1

Measured: log2 fold change

SMS (UniProt P52788)
inactive: alvocidib 0.018 | Tubastatin A -0.009 | [1] -0.006 | defactinib -0.015 | [2] -0.006 | encorafenib -0.003 | [3] 0.028 | alisertib 0.003 | [4] 0.006 | gefitinib -0.021

SMG8 isoform 2 (UniProt Q8ND04)
inactive: alvocidib 0.07 | Tubastatin A -0.039 | [1] -0.032 | defactinib 0.056 | [2] -0.088 | encorafenib 0.006 | [3] 0.009 | alisertib -0.013 | [4] -0.01 | gefitinib 0.017

SMC6 (UniProt Q96SB8)
inactive: alvocidib -0.017 | Tubastatin A -0.087 | [1] 0.049 | defactinib -0.003 | [2] -0.004 | encorafenib -0.02 | [3] 0.045 | alisertib -0.018 | [4] -0.013 | gefitinib 0.007

SOD1 (UniProt P00441)
inactive: alvocidib 0.187 | Tubastatin A 0.012 | [1] 0.011 | defactinib 0.015 | [2] -0.111 | encorafenib -0.009 | [3] -0.036 | alisertib 0.026 | [4] -0.024 | gefitinib 0.074

SOAT1 (UniProt P35610)
inactive: alvocidib -0.033 | Tubastatin A 0.086 | [1] 0.036 | defactinib -0.022 | [2] -0.002 | encorafenib 0.065 | [3] 0.123 | alisertib -0.014 | [4] -0.076 | gefitinib 0.047

SMARCA4 (UniProt P51532)
inactive: alvocidib 0.004 | Tubastatin A -0.078 | [1] -0.007 | defactinib 0.002 | [2] -0.003 | encorafenib 0.021 | [3] 0.056 | alisertib 0.019 | [4] -0.002 | gefitinib -0.001

SMG9 (UniProt Q9H0W8)
inactive: alvocidib -0.025 | Tubastatin A -0.043 | [1] 0.042 | defactinib 0.034 | [2] -0.091 | encorafenib 0.032 | [3] -0.049 | alisertib 0.024 | [4] 0.03 | gefitinib -0.021

SMIM12 (UniProt Q96EX1)
inactive: alvocidib 0.22 | Tubastatin A 0.007 | [1] 0.065 | defactinib 0.025 | [2] 0.07 | encorafenib -0.067 | [3] -0.018 | alisertib 0.018 | [4] -0.044 | gefitinib -0.033

SNRPC (UniProt P09234)
inactive: alvocidib -0.031 | Tubastatin A 0.078 | [1] 0.024 | defactinib -0.031 | [2] 0.032 | encorafenib -0.027 | [3] 0.01 | alisertib 0.012 | [4] 0.003 | gefitinib -0.001

SMTN isoform 6 (UniProt P53814)
inactive: alvocidib -0.04 | Tubastatin A -0.019 | [1] 0.071 | defactinib -0.103 | [2] -0.013 | encorafenib -0.002 | [3] -0.085 | alisertib 0.055 | [4] -0.005 | gefitinib 0.005

2 records drawn at random from those above:
SMG9 (UniProt Q9H0W8)
inactive: alvocidib -0.025 | Tubastatin A -0.043 | [1] 0.042 | defactinib 0.034 | [2] -0.091 | encorafenib 0.032 | [3] -0.049 | alisertib 0.024 | [4] 0.03 | gefitinib -0.021

SMARCA4 (UniProt P51532)
inactive: alvocidib 0.004 | Tubastatin A -0.078 | [1] -0.007 | defactinib 0.002 | [2] -0.003 | encorafenib 0.021 | [3] 0.056 | alisertib 0.019 | [4] -0.002 | gefitinib -0.001

(list continues)

SNRNP70 (UniProt P08621)
inactive: alvocidib -0.006 | Tubastatin A 0.011 | [1] -0.024 | defactinib -0.006 | [2] 0.02 | encorafenib 0.026 | [3] -0.016 | alisertib -0.016 | [4] 0.011 | gefitinib -0.013

SNW1 (UniProt Q13573)
inactive: alvocidib 0.023 | Tubastatin A 0.051 | [1] 0.02 | defactinib 0.006 | [2] 0.073 | encorafenib 0.02 | [3] -0.119 | alisertib 0.014 | [4] -0.003 | gefitinib -0.03

SNX1 (UniProt Q13596)
inactive: alvocidib -0.001 | Tubastatin A 0.002 | [1] 0.015 | defactinib -0.001 | [2] -0.017 | encorafenib 0.019 | [3] 0.021 | alisertib 0.009 | [4] -0.014 | gefitinib -0.011

SNRPD1 (UniProt P62314)
inactive: alvocidib -0.055 | Tubastatin A 0.013 | [1] 0.038 | defactinib -0.014 | [2] 0.044 | encorafenib -0.013 | [3] 0.016 | alisertib -0.022 | [4] 0.005 | gefitinib 0.007

SMG6 (UniProt Q86US8)
inactive: alvocidib -0.067 | Tubastatin A -0.062 | [1] -0.112 | defactinib -0.027 | [2] -0.059 | encorafenib 0.148 | [3] -0.01 | alisertib -0.044 | [4] 0.008 | gefitinib -0.069

SNRPD2 (UniProt P62316)
inactive: alvocidib -0.054 | Tubastatin A 0.027 | [1] -0.003 | defactinib -0.019 | [2] 0.021 | encorafenib 0.005 | [3] -0.027 | alisertib 0.014 | [4] 0.029 | gefitinib -0.02

SND1 (UniProt Q7KZF4)
inactive: alvocidib 0.009 | Tubastatin A -0.121 | [1] 0.015 | defactinib 0.019 | [2] -0.019 | encorafenib -0.019 | [3] 0.195 | alisertib 0.026 | [4] -0.004 | gefitinib -0.017

SNRNP48 (UniProt Q6IEG0)
inactive: alvocidib -0.044 | Tubastatin A -0.056 | [1] 0.002 | defactinib -0.062 | [2] -0.038 | encorafenib 0.046 | [3] -0.076 | alisertib 0.076 | [4] -0.037 | gefitinib -0.003

SMNDC1 (UniProt O75940)
inactive: alvocidib -0.037 | Tubastatin A 0.053 | [1] 0.048 | defactinib -0.004 | [2] 0.046 | encorafenib -0.033 | [3] -0.008 | alisertib 0.021 | [4] 0.004 | gefitinib 0.014

SNAPIN (UniProt O95295)
inactive: alvocidib 0.004 | Tubastatin A 0.057 | [1] 0.044 | defactinib 0.049 | [2] 0.05 | encorafenib 0.039 | [3] -0.045 | alisertib 0.045 | [4] -0.005 | gefitinib -0.016

SMARCAL1 (UniProt Q9NZC9)
inactive: alvocidib 0.125 | Tubastatin A -0.108 | [1] 0.052 | defactinib -0.001 | [2] -0.049 | encorafenib 0.01 | [3] 0.057 | alisertib -0.002 | [4] 0.053 | gefitinib -0.012

SNRPF (UniProt P62306)
inactive: alvocidib -0.119 | Tubastatin A -0.028 | [1] -0.02 | defactinib 0.014 | [2] -0.034 | encorafenib 0.021 | [3] 0.014 | alisertib -0.03 | [4] 0.022 | gefitinib 0.084

SMG7 (UniProt Q92540)
inactive: alvocidib -0.003 | Tubastatin A 0.008 | [1] 0.018 | defactinib 0.076 | [2] -0.017 | encorafenib 0.025 | [3] 0.202 | alisertib 0.015 | [4] 0.132 | gefitinib 0.032

SMCHD1 (UniProt A6NHR9)
inactive: alvocidib -0.044 | Tubastatin A -0.121 | [1] 0.015 | defactinib -0.01 | [2] -0.01 | encorafenib 0.01 | [3] 0.089 | alisertib 0.002 | [4] 0.006 | gefitinib -0.001

SNTB2 (UniProt Q13425)
inactive: alvocidib -0.02 | Tubastatin A -0.113 | [1] 0.018 | defactinib 0.007 | [2] 0.017 | encorafenib 0.052 | [3] 0.113 | alisertib -0.013 | [4] 0.014 | gefitinib -0.037

SNX15 (UniProt Q9NRS6)
inactive: alvocidib 0.007 | Tubastatin A -0.028 | [1] 0.006 | defactinib 0.076 | [2] -0.096 | encorafenib 0.002 | [3] -0.009 | alisertib -0.03 | [4] 0.004 | gefitinib 0.003

SMC5 (UniProt Q8IY18)
inactive: alvocidib -0.022 | Tubastatin A -0.003 | [1] -0.005 | defactinib 0.007 | [2] -0.008 | encorafenib -0.011 | [3] 0.023 | alisertib -0.035 | [4] -0.008 | gefitinib 0.043

SNRPA1 (UniProt P09661)
inactive: alvocidib -0.034 | Tubastatin A 0.042 | [1] -0.015 | defactinib -0.031 | [2] -0.006 | encorafenib -0.015 | [3] 0.016 | alisertib 0.001 | [4] -0.006 | gefitinib 0.013

SNRNP27 (UniProt Q8WVK2)
inactive: alvocidib -0.004 | Tubastatin A 0.065 | [1] -0.014 | defactinib 0.039 | [2] -0.037 | encorafenib 0 | [3] -0.03 | alisertib -0.038 | [4] 0.014 | gefitinib 0.038
